Data taken from article PMC11321683.

Amino acid sequences for entries named in this document (tags omitted).
UniProt D9ZJE9, entry or part of it: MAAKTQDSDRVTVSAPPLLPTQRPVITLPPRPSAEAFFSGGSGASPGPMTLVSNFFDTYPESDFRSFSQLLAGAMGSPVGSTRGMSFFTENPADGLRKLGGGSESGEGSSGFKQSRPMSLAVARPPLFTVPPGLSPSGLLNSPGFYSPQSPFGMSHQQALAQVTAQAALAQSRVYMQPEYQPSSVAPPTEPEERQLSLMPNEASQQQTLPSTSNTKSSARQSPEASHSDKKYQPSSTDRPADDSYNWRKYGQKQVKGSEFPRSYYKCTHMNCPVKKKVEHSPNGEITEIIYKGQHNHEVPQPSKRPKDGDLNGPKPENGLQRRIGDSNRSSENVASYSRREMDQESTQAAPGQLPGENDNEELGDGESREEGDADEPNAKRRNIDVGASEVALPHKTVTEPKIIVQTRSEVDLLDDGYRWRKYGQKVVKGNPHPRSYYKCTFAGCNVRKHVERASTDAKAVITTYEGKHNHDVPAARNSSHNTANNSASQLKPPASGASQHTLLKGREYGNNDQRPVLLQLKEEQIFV

Biological target: MdWRKY10 (Malus domestica) (UniProt D9ZJE9)
Experiment: EMSA
Conditions: EMSA with LightShift chemiluminescent kit (Thermo) per manufacturer; pH and temperature not stated; recombinant protein; protein details: His (pET-32a(+) vector); label: 3' biotin

**Q.** Does “ACCACATTTTTACACTAAAACCAACGTCCTGGTACTATTCACTTTA / TAAAGTGAATAGTACCAGGATTTCCTTTTTAGTGTAAAAATGTGGT [proR-InD (mP)]” bind?
**A.** no binding

**Q.** Does “ATATAAGATGTTAATATAACTTGACCGTGACTATTCAAATAGGAGG (double strand) [proMdMYB10 W1]” bind?
**A.** no binding

**Q.** Does “GCGTGTCAATCTGCATAACGTGTCAAAATGGGTTACCTGCGTGTCA (double strand) [proMdUFGT W4]” bind?
**A.** no binding

**Q.** Does “TTAATATTAAGAATGCACGTTTGACAAAAAAAATATTAAAATGCAC (double strand) [proMdF3'5'H W1]” bind?
**A.** no binding

No signal at the amounts used counts as a negative. At least one verdict rests on a figure or table, not on a statement of the authors. For at least one entry, the source does not settle the construct or the ends of the probe.
